Where a name gives a salt, the structure may show the parent alone. Hit rate of the full screen: of about 1,200 compounds, about 50 (4%) showed activity. Cut-off read from the data, not from the text of the source: all actives reach 1.3 or more but so do some inactives. Some of the results follow.
Tested on: Lgr5 (MarsCy1-Lgr5-EGFP, U2OS)
Test: cell-surface Lgr5 expression (SCi1 fluorescence, background-subtracted) relative to WT DMSO (fold of DMSO control); higher = more Lgr5 at the plasma membrane, active = hit call of the paper
Settings: U2OS MarsCy1-Lgr5-EGFP stable; treatment time: overnight; 16 µM; library: Johns Hopkins Clinical Compound Library

cell-surface Lgr5 expression, active:
CC1(C)O[C@@H]2C[C@H]3[C@@H]4C[C@H](F)C5=CC(=O)CC[C@]5(C)[C@H]4[C@@H](O)C[C@]3(C)[C@]2(C(=O)CO)O1 1.55
NCCc1ccc(O)c(O)c1 [Dopamine (3-Hydroxytyramine hydrochloride)] 1.51
NCCc1ccc(O)c(O)c1 [3-hydroxytyramine (Dopamine)] 1.43
CC1(C)O[C@@H]2C[C@H]3[C@@H]4C[C@H](F)C5=CC(=O)C=C[C@]5(C)[C@H]4[C@@H](O)C[C@]3(C)[C@]2(C(=O)CO)O1 [Flunisolide] 1.47

cell-surface Lgr5 expression, inactive:
C[N+](C)(C)CCOC(N)=O [Carbachol (Carbamylcholine chloride)] 1.18
CC(C)(C)NC[C@H](O)COc1cccc2c1CCCC2=O [Levobunolol, HCl (-)] 0.705
Cc1nc2sccn2c(=O)c1CCN1CCC(=C(c2ccc(F)cc2)c2ccc(F)cc2)CC1 [Ritanserin] 1.15
C[C@H](CCC(=O)O)[C@H]1CC[C@H]2[C@@H]3C(=O)C[C@@H]4CC(=O)CC[C@]4(C)[C@H]3CC(=O)[C@]12C [Dehydrocholic acid] 1.04
CCN(CC)CCNC(=O)c1cc(Br)c(N)cc1OC [Bromopride] 1.21
Cc1cc2nc3c(=O)[nH]c(=O)nc-3n(C[C@H](O)[C@H](O)[C@H](O)COP(=O)(O)O)c2cc1C [Riboflavin phosphate sodium (Flavin monomucleotide)] 0.932
CSCC[C@H](NC(=O)[C@H](Cc1c[nH]c2ccccc12)NC(=O)CCNC(=O)OC(C)(C)C)C(=O)N[C@@H](CC(=O)O)C(=O)N[C@@H](Cc1ccccc1)C(N)=O [Pentagastrin (N-t-Boc-β-Ala-Trp-Met-Asp-Phe)] 0.827
CC(C)NNC(=O)c1ccncc1 [Iproniazid phosphate salt] 0.865
CC(C)NNC(=O)c1ccncc1 [Iproniazid (Isonicotinic acid hydrazide)] 0.919
O=C1c2cccc(O)c2C(=O)c2c(O)cccc21 [Danthron (1,8-Dihydroxyanthraquinone)] 1.25
Nc1ccc(S(=O)(=O)O)cc1.Nc1ccc(S(=O)(=O)O)cc1.[Zn] [Sulfanilate Zinc (Sulfanilic acid)] 0.983
[Al+3].[Al+3].[Al+3].[Al+3].[Al+3].[Al+3].[Bi+3].[Bi+3].[O-2].[O-2].[O-2].[O-2].[O-2].[O-2].[O-2].[O-2].[O-2].[O-2].[O-2].[O-2] [Bismuth aluminate] 1.14
C#C[C@]1(O)CC[C@H]2[C@@H]3CCC4=Cc5oncc5C[C@]4(C)[C@H]3CC[C@@]21C [Danazol] 0.899
O=c1cc[nH]c(=O)[nH]1 [Uracil] 0.844
[Cl-].[Cl-].[Cl-].[In+3] [Indium(III) chloride] 0.736
CN1CCCN=C1/C=C/c1cccs1 [Pyrantel] 0.992
NNC(=O)c1ccncc1 [Isoniazid (Isonicotinic acid Hydrazide)] 1.16
CN(C(=O)CCCOc1ccc2[nH]c(=O)ccc2c1)C1CCCCC1 [Cilostamide] 1.06
O=C(O)c1cccnc1 [Nicotinic Acid (niacin)] 0.992
CCCCc1oc2ccccc2c1C(=O)c1cc(I)c(OCCN(CC)CC)c(I)c1 [Amiodarone] 1.01
O=c1[nH]c(=O)n([C@H]2C[C@H](O)[C@@H](CO)O2)cc1I [Idoxuridine ((+)-5-Iodo-2'-deoxyuridine)] 0.91
c1ccc2ccccc2c1 [Naphthalene] 1.25
O.O=C([O-])CN(CCN(CC(=O)[O-])CC(=O)[O-])CC(=O)[O-].[Ca+2].[Na+].[Na+] [Edetate calcium disodium (Calcium disodium versenate)] 0.981
O.O=C([O-])CN(CCN(CC(=O)[O-])CC(=O)[O-])CC(=O)[O-].[Ca+2].[Na+].[Na+] 1
O=C1O[C@H]([C@@H](O)CO)C(O)=C1[O-].O=C1O[C@H]([C@@H](O)CO)C(O)=C1[O-].[Ca+2] [Calcium L-ascorbate dihydrate] 1.08
O.O.O.O.O.O.O.O=S(=O)([O-])[O-].[Fe+2] [Iron(II) sulfate heptahydrate] 1.01
C[C@H](CS)C(=O)N1CCC[C@H]1C(=O)O [Captopril] 1.23
CCCOC(=O)c1ccc(N)cc1 [Risocaine (N-Propyl-p-aminobenzoate)] 1.06
C=CC[N+]1([C@H]2C[C@H]3[C@@H]4CC[C@H]5C[C@H](O)[C@@H](N6CCOCC6)C[C@]5(C)[C@H]4CC[C@]3(C)[C@H]2OC(C)=O)CCCC1 [Rocuronium bromide (Zemuron)] 1.2
CC(C)(C)NC(=O)[C@H]1CC[C@H]2[C@@H]3CC[C@H]4NC(=O)C=C[C@]4(C)[C@H]3CC[C@]12C [Finasteride] 1.17
C=CC1=C(C)/C(=C/c2[nH]c(Cc3[nH]c(/C=C4\NC(=O)C(C)=C4C=C)c(C)c3CCC(=O)O)c(CCC(=O)O)c2C)NC1=O [Bilirubin] 0.974
Nc1nc(N)c2nc(-c3ccccc3)c(N)nc2n1 [Triamterene] 1.22
C=C1CC[C@H](O)C/C1=C/C=C1\CCC[C@]2(C)[C@@H]([C@H](C)/C=C/[C@H](C)C(C)C)CC[C@@H]12 [Ergocalciferol] 1.01
C=C1CC[C@H](O)C/C1=C/C=C1\CCC[C@]2(C)[C@@H]([C@H](C)/C=C/[C@H](C)C(C)C)CC[C@@H]12 [Vitamin D2] 0.772
CC[C@H](C)C(=O)O[C@H]1C[C@H](O)C=C2C=C[C@H](C)[C@H](CC[C@@H]3C[C@@H](O)CC(=O)O3)[C@H]21 [Pravastatin lactone] 1.09

Two entries drawn at random from the list so far:
cell-surface Lgr5 expression, inactive:
C#C[C@]1(O)CC[C@H]2[C@@H]3CCC4=Cc5oncc5C[C@]4(C)[C@H]3CC[C@@]21C [Danazol] 0.899
O=C1c2cccc(O)c2C(=O)c2c(O)cccc21 [Danthron (1,8-Dihydroxyanthraquinone)] 1.25

— the supplement of paper PMC4683952
